From the supplement of paper PMC8166895
Where a name gives a salt, the structure may show the parent alone. Some of the results follow. Most values lie at the level of the controls, where differences are scatter.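 Differential scanning fluorimetry gave melting temperatures in a one-replicate pilot screen of a library of approved drugs plus clinical or known-target compounds. Hits increasing melting point at least 2 °C were the strongest stabilizers, while negative shifts signify destabilization.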 Where a SMILES comes first, the peptide text is derived from it. [ ]: non-standard residue; d: D form.

tested on: SARS-CoV-2 main protease (Mpro, nsp5); test: thermal shift ΔTm of Mpro relative to plate average Tm; higher = stronger thermal stabilization of Mpro (binding); conditions: 10 µM; protein concentration 1 µM

Structure (SMILES) | thermal shift ΔTm of Mpro
CC(=O)c1ccc2c(c1)N(CCCN1CCC(CCO)CC1)c1ccccc1S2 [Piperacetazine] | -0.0469 °C
CO[C@@]1(NC(=O)Cc2cccs2)C(=O)N2C(C(=O)O)=C(COC(N)=O)CS[C@@H]21 [Cefoxitin sodium] | 0.0371 °C
COc1ccc2[nH]c(C(=O)N3CCC(CC(C)(C)O)CC3)cc2c1 | 0.108 °C
CC1(COc2ccc3c(c2)ncn3-c2ccc3cccc(N4CCC(N)CC4)c3n2)COC1 | -0.13 °C
COc1ccccc1-c1cc(Nc2cccc(CS(N)(=O)=O)c2)ncn1 | -0.179 °C
O=C1NCCSc2c1sc1ccc(O)cc21 | 0.0777 °C
NS(=O)(=O)c1cccc2c1c([N+](=O)[O-])cc1nc(O)c(O)nc12 [NBQX disodium salt] | -0.0718 °C
Cc1cc(N2CCCCC2)nc2ccccc12 | 0.319 °C
CCCCC(CC)CN1CN(CC(CC)CCCC)CC(C)(N)C1 (configuration not stated) [Hexetidine] | 0.175 °C
CCCC[S+]([O-])c1sc2nc(-c3cccs3)cc(-c3ccccc3)c2c1N (configuration not stated) | -1.19 °C
c1ccc(CNc2ccccc2)cc1 [N-Phenylbenzylamine] | -0.00202 °C
Nc1ccccc1NC(=O)c1ccc(CNC(=O)OCc2cccnc2)cc1 [Entinostat (MS-275)] | 0.0523 °C
CCCCOc1c(C(=O)c2c(F)cc(C)cc2F)c[nH]c2nncc1-2 | 0.0383 °C
CCC(=O)N1CCOc2c(cc(-c3ccc(OC)c(OC)c3)cc2OC[C@H]2CCCN(C)C2)C1 [I-CBP112 hydrochloride] | 0.322 °C
COc1ccc(Cc2cnc(N)nc2N)cc1OC [Diaveridine] | -0.195 °C
CN(C)C(=O)COC(=O)Cc1ccc(OC(=O)c2ccc(NC(=N)N)cc2)cc1 [Camostat Mesilate] | -0.103 °C
CC(C)C[C@@H]1NC(=O)[C@@H](C(C)C)NC(=O)[C@@H]2CCCN2C(=O)[C@@H](CC(=O)O)NC(=O)[C@@H](Cc2c[nH]c3ccccc23)NC1=O (cyclo(L[dW][dD]P[dV])) | -0.158 °C
CCC1(C)CC(=O)NC(=O)C1 [Bemegride] | 0.0705 °C
N=C(N)NC(=O)c1nc(Cl)c(N)nc1N [Amiloride hydrochloride dihydrate] | -0.0184 °C
N=C(N)NC(=O)c1nc(Cl)c(N)nc1N [Amiloride HCl] | 0.0492 °C
CCCCOC(=O)c1ccc(N)cc1 [Butyl 4-aminobenzoate] | 0.114 °C

Structure (SMILES) | thermal shift ΔTm of Mpro
O=C(Nc1cc(C(F)(F)F)ccc1O)Nc1cc(C(F)(F)F)ccc1O | 0.522 °C
Cc1ccccc1-n1c(Cn2ncc3c(N)ncnc32)nc2cccc(C)c2c1=O | -0.133 °C
CCN(Cc1ccc(Cl)nc1)/C(=C/[N+](=O)[O-])NC [Nitenpyram] | -0.0635 °C
O=C1N[C@@H](Cc2c[nH]c3ccccc23)C(=O)N2CCC[C@@H]12 [Brevianamide F] | 7.29e-05 °C
N[C@@H]1CCCCN(c2c(F)cc3c(=O)c(C(=O)O)cn(C4CC4)c3c2Cl)C1 [Besifloxacin HCl] | -0.00551 °C
OC1C[C@H]2CC[C@@H](C1)N2 (some centres not stated) [Nortropine] | 0.104 °C
CCCCCCCCC/C(=C\C1=C(C)C(=O)C(OC)=C(OC)C1=O)C(=O)O | -0.0415 °C
C/C(O)=C(\C#N)C(=O)Nc1cc(Br)ccc1Br | 0.307 °C
O=[N+]([O-])c1ccc2c(c1)S(=O)(=O)C=C2 [Stattic] | -0.112 °C
CC[C@H]1OC(=O)[C@H](C)[C@@H](O[C@H]2C[C@@](C)(OC)[C@@H](O)[C@H](C)O2)[C@H](C)[C@@H](O[C@@H]2O[C@H](C)C[C@H](N(C)C)[C@H]2O)[C@](C)(OC)C[C@@H](C)C(=O)[C@H](C)[C@@H](O)[C@]1(C)O [Clarithromycin] | -0.0539 °C
NC(=O)Cc1cccc(C(=O)c2ccccc2)c1N [Nepafenac] | 0.124 °C
C[C@H]1COC2=C1C(=O)C(=O)c1c2ccc2c1CCCC2(C)C [Cryptotanshinone] | 0.0798 °C
CN(C)CC[C@H](CSc1ccccc1)Nc1ccc(S(=O)(=O)NC(=O)c2ccc(N3CCN(Cc4ccccc4-c4ccc(Cl)cc4)CC3)cc2)cc1[N+](=O)[O-] | 0.346 °C
COc1ccc2c(c1OCc1ccccc1)C[C@@H](C(=O)O)N(C(=O)C(c1ccccc1)c1ccccc1)C2 | 0.256 °C
CCCCC1=NC2(CCCC2)C(=O)N1Cc1ccc(-c2ccccc2-c2nnn[nH]2)cc1 [Irbesartan] | 0.364 °C
NCC(=O)Nc1ccc(-n2nc(C(F)(F)F)cc2-c2ccc3c(ccc4ccccc43)c2)cc1 | 0.537 °C
NS(=O)(=O)c1cc2c(cc1Cl)N=CNS2(=O)=O [Chlorothiazide] | 0.123 °C
COc1ccc(-c2cnc3c(-c4cccc5ncccc45)cnn3c2)cc1 | -0.171 °C
O=c1c(O)c(-c2ccc(O)c(O)c2)oc2cc(O)ccc12 [Fisetin] | -0.0715 °C
O=C(COc1ccc(Cl)cc1)NC1CCC(NC(=O)COc2ccc(Cl)cc2)CC1 (configuration not stated) | 0.058 °C
COc1cc2ncnc(Oc3cccc(NC(=O)Nc4cc(C(C)(C)C(F)(F)F)on4)c3)c2cc1OC | 0.283 °C

For convenience, part of the list above.
Structure (SMILES) | thermal shift ΔTm of Mpro
C/C(O)=C(\C#N)C(=O)Nc1cc(Br)ccc1Br | 0.307 °C
O=[N+]([O-])c1ccc2c(c1)S(=O)(=O)C=C2 [Stattic] | -0.112 °C
CC[C@H]1OC(=O)[C@H](C)[C@@H](O[C@H]2C[C@@](C)(OC)[C@@H](O)[C@H](C)O2)[C@H](C)[C@@H](O[C@@H]2O[C@H](C)C[C@H](N(C)C)[C@H]2O)[C@](C)(OC)C[C@@H](C)C(=O)[C@H](C)[C@@H](O)[C@]1(C)O [Clarithromycin] | -0.0539 °C
NC(=O)Cc1cccc(C(=O)c2ccccc2)c1N [Nepafenac] | 0.124 °C
C[C@H]1COC2=C1C(=O)C(=O)c1c2ccc2c1CCCC2(C)C [Cryptotanshinone] | 0.0798 °C
CN(C)CC[C@H](CSc1ccccc1)Nc1ccc(S(=O)(=O)NC(=O)c2ccc(N3CCN(Cc4ccccc4-c4ccc(Cl)cc4)CC3)cc2)cc1[N+](=O)[O-] | 0.346 °C
COc1ccc2c(c1OCc1ccccc1)C[C@@H](C(=O)O)N(C(=O)C(c1ccccc1)c1ccccc1)C2 | 0.256 °C
CCCCC1=NC2(CCCC2)C(=O)N1Cc1ccc(-c2ccccc2-c2nnn[nH]2)cc1 [Irbesartan] | 0.364 °C
NCC(=O)Nc1ccc(-n2nc(C(F)(F)F)cc2-c2ccc3c(ccc4ccccc43)c2)cc1 | 0.537 °C
NS(=O)(=O)c1cc2c(cc1Cl)N=CNS2(=O)=O [Chlorothiazide] | 0.123 °C
